Publication PMC11419255
Results are given in words; binding and its absence hold for the method and conditions named. Binding seen in cells or lysates may run through a third protein. Some entries that bind do so weakly or less than the wild type.

The chains behind the UniProt entries cited, without tags or fusion partners. Residues count along the entry.
UniProt Q15388: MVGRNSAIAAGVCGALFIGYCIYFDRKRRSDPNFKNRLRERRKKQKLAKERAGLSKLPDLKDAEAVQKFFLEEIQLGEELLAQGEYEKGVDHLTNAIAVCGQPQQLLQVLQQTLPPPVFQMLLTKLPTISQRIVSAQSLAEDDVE
UniProt P10809, residues 27-573: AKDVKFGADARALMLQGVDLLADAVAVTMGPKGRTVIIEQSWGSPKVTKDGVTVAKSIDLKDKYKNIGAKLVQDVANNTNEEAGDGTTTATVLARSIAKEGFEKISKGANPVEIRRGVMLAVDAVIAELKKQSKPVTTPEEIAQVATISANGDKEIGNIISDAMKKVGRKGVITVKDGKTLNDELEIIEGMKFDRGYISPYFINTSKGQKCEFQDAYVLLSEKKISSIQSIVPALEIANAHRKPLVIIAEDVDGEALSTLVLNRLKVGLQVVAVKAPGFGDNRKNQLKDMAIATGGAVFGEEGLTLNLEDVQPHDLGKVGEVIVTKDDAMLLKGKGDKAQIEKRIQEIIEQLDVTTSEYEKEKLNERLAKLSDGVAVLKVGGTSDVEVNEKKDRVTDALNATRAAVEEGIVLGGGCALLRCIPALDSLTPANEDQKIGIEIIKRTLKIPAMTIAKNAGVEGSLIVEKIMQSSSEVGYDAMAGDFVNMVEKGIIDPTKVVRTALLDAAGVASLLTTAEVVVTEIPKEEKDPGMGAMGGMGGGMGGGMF
UniProt O75489: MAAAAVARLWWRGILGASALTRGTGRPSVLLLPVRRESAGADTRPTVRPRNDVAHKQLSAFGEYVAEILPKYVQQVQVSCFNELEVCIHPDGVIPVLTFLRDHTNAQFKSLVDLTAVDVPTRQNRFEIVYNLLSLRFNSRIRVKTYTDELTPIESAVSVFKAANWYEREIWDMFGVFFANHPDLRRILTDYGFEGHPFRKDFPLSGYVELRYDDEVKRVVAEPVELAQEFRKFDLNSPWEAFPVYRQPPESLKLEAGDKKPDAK

T1: ZNF598 (human (endogenous in LN299 and T24)) (UniProt Q86UK7)
T1 sequence: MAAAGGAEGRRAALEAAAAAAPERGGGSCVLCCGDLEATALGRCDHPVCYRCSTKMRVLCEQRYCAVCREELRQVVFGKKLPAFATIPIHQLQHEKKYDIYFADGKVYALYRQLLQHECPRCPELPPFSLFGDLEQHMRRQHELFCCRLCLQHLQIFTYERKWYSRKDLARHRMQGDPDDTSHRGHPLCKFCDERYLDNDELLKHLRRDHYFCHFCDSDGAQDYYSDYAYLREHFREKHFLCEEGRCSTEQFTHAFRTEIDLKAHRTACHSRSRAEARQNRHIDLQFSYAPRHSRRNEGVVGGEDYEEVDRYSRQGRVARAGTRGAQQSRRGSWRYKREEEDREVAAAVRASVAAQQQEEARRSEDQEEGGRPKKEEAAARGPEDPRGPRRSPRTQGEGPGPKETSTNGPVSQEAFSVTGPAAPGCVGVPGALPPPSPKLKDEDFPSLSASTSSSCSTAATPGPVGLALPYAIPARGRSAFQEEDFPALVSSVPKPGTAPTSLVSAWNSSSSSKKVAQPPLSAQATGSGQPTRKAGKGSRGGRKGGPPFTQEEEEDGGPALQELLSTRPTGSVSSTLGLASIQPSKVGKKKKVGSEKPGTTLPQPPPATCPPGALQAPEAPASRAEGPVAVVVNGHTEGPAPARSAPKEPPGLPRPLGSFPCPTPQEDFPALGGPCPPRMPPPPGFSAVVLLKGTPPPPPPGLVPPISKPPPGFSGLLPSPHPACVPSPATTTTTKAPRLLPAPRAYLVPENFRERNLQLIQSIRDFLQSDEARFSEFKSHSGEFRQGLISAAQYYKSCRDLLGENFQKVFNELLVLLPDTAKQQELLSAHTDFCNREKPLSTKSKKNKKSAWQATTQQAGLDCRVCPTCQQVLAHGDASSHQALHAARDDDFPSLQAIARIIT


Tests used:
[1] = target: T1, ZNF598 (human (endogenous in LN299 and T24)); test: co-IP; IP with anti-ZNF598 from the mitochondrial fractions of T24 cells, with or without EME; NP40 IP-lysis buffer, antibody overnight at 4°C, magnetic beads, Western blot
[2] = target: TOM20 (human (endogenous in LN299 and T24)) (UniProt Q15388); test: co-IP; IP with anti-TOM20 from the mitochondrial fraction of LN299 cells, untreated or EME-treated (Fig. 3A) and EME with or without CCCP co-treatment (Fig. 5M); NP40 IP-lysis buffer, antibody overnight at 4°C, magnetic beads, Western blot
[3] = target: HSP60 (human (endogenous in T24)) (UniProt P10809); test: co-IP; IP with anti-HSP60 from the mitochondrial fractions of T24 cells, with or without EME; NP40 IP-lysis buffer, antibody overnight at 4°C, magnetic beads, Western blot
[4] = target: electron transport chain (ETC) complex-I protein C-I30 (human (endogenous in LN299)) (UniProt O75489); test: co-IP; IP with anti-C-I30 from LN299 cells, EME-treated; NP40 IP-lysis buffer, antibody overnight at 4°C, magnetic beads, Western blot

binding [1]	binding [2]	binding [3]	binding [4]	Molecule
binds				TOM20 (from UniProt Q15388 1-145)
binds	binds	binds		NEMF (protein, UniProt O60524 1-1076) MKSRFSTIDLRAVLAELNASLLGMRVNNVYDVDNKTYLIRLQKPDFKATLLLESGIRIHTTEFEWPKNMMPSSFAMKCRKHLKSRRLVSAKQLGVDRIVDFQFGSDEAAYHLIIELYDRGNIVLTDYEYVILNILRFRTDEADDVKFAVRERYPLDHARAAEPLLTLERLTEIVASAPKGELLKRVLNPLLPYGPALIEHCLLENGFSGNVKVDEKLETKDIEKVLVSLQKAEDYMKTTSNFSGKGYIIQKREIKPSLEADKPVEDILTYEEFHPFLFSQHSQCPYIEFESFDKAVDEFYSKIEGQKIDLKALQQEKQALKKLDNVRKDHENRLEALQQAQEIDKLKGELIEMNLQIVDRAIQVVRSALANQIDWTEIGLIVKEAQAQGDPVASAIKELKLQTNHVTMLLRNPYLLSEEEDDDVDGDVNVEKNETEPPKGKKKKQKNKQLQKPQKNKPLLVDVDLSLSAYANAKKYYDHKRYAAKKTQKTVEAAEKAFKSAEKKTKQTLKEVQTVTSIQKARKVYWFEKFLWFISSENYLIIGGRDQQQNEIIVKRYLTPGDIYVHADLHGATSCVIKNPTGEPIPPRTLTEAGTMALCYSAAWDARVITSAWWVYHHQVSKTAPTGEYLTTGSFMIRGKKNFLPPSYLMMGFSFLFKVDESCVWRHQGERKVRVQDEDMETLASCTSELISEEMEQLDGGDTSSDEDKEEHETPVEVELMTQVDQEDITLQSGRDELNEELIQEESSEDEGEYEEVRKDQDSVGEMKDEGEETLNYPDTTIDLSHLQPQRSIQKLASKEESSNSSDSKSQSRRHLSAKERREMKKKKLPSDSGDLEALEGKDKEKESTVHIETHQNTSKNVAAVQPMKRGQKSKMKKMKEKYKDQDEEDRELIMKLLGSAGSNKEEKGKKGKKGKTKDEPVKKQPQKPRGGQRVSDNIKKETPFLEVITHELQDFAVDDPHDDKEEQDLDQQGNEENLFDSLTGQPHPEDVLLFAIPICAPYTTMTNYKYKVKLTPGVQKKGKAAKTALNSFMHSKEATAREKDLFRSVKDTDLSRNIPGKVKVSAPNLLNVKRK
	binds	binds	binds	ZNF598 (protein, UniProt Q86UK7 1-904) MAAAGGAEGRRAALEAAAAAAPERGGGSCVLCCGDLEATALGRCDHPVCYRCSTKMRVLCEQRYCAVCREELRQVVFGKKLPAFATIPIHQLQHEKKYDIYFADGKVYALYRQLLQHECPRCPELPPFSLFGDLEQHMRRQHELFCCRLCLQHLQIFTYERKWYSRKDLARHRMQGDPDDTSHRGHPLCKFCDERYLDNDELLKHLRRDHYFCHFCDSDGAQDYYSDYAYLREHFREKHFLCEEGRCSTEQFTHAFRTEIDLKAHRTACHSRSRAEARQNRHIDLQFSYAPRHSRRNEGVVGGEDYEEVDRYSRQGRVARAGTRGAQQSRRGSWRYKREEEDREVAAAVRASVAAQQQEEARRSEDQEEGGRPKKEEAAARGPEDPRGPRRSPRTQGEGPGPKETSTNGPVSQEAFSVTGPAAPGCVGVPGALPPPSPKLKDEDFPSLSASTSSSCSTAATPGPVGLALPYAIPARGRSAFQEEDFPALVSSVPKPGTAPTSLVSAWNSSSSSKKVAQPPLSAQATGSGQPTRKAGKGSRGGRKGGPPFTQEEEEDGGPALQELLSTRPTGSVSSTLGLASIQPSKVGKKKKVGSEKPGTTLPQPPPATCPPGALQAPEAPASRAEGPVAVVVNGHTEGPAPARSAPKEPPGLPRPLGSFPCPTPQEDFPALGGPCPPRMPPPPGFSAVVLLKGTPPPPPPGLVPPISKPPPGFSGLLPSPHPACVPSPATTTTTKAPRLLPAPRAYLVPENFRERNLQLIQSIRDFLQSDEARFSEFKSHSGEFRQGLISAAQYYKSCRDLLGENFQKVFNELLVLLPDTAKQQELLSAHTDFCNREKPLSTKSKKNKKSAWQATTQQAGLDCRVCPTCQQVLAHGDASSHQALHAARDDDFPSLQAIARIIT
